# From the supplement of paper PMC8728848
# Some of the results follow.
# B1: PhypaEULS3 (Physcomitrella patens) (protein)
# chain: MLPVRLHCKADPNFNLAAVPGQGPVMVPFSPNDDFQVWYKDVTMSTRVKDETGSSAFSLINKATGQALRHAPEDLAQCLLADYDSNALDQTVLWTMSEDMGQGYCCIRLASQITRNLDVFRGDKKSGGVKEGSPVITFAWKKQDNQIWKMITAILEQKLISEEDLNSAVDHHHHHH
# Experiments:
# Test in all cases: glycan array binding signal (z-score within array); higher = stronger binding
# Conditions in all cases: glycan notation: IUPAC condensed, linker removed
# [1] = target: Man(a1-2)Man(a1-3)[Man(a1-2)Man(a1-6)]Man(a1-6)[Man(a1-2)Man(a1-2)Man(a1-3)]Man
# Procedure, shortened: (§1)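 From the Consortium for Functional Glycomics database, 3228 arrays were curated, keeping only those whose protein sequence was available. Binding is given as a within-array Z-score averaged across arrays sharing a protein sequence and across linkers. Negative Z-scores can be read as non-binding.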
# [2] = target: Man(a1-2)Man(a1-3)[Man(a1-2)Man(a1-6)]Man(a1-6)[Man(a1-2)Man(a1-2)Man(a1-3)]Man(b1-4)GlcNAc(b1-4)GlcNAc
# Procedure, shortened: as §1
# [3] = target: Man(a1-2)Man(a1-3)[Man(a1-6)]Man(a1-6)[Man(a1-2)Man(a1-3)]Man(b1-4)GlcNAc(b1-4)GlcNAc
# Procedure, shortened: as §1
# [4] = target: Man(a1-2)Man(a1-6)[Man(a1-3)]Man(a1-6)[Man(a1-2)Man(a1-2)Man(a1-3)]Man
# Procedure, shortened: as §1
# [5] = target: Man(a1-2)Man(a1-6)[Man(a1-3)]Man(a1-6)[Man(a1-2)Man(a1-2)Man(a1-3)]Man(b1-4)GlcNAc(b1-4)GlcNAc
# Procedure, shortened: as §1
# Man(a1-3)[Man(a1-6)]Man = target: Man(a1-3)[Man(a1-6)]Man
# Procedure, shortened: as §1
# [6] = target: Man(a1-3)[Man(a1-6)]Man(a1-6)[Man(a1-2)Man(a1-3)]Man(b1-4)GlcNAc(b1-4)GlcNAc
# Procedure, shortened: as §1
# [7] = target: Man(a1-3)[Man(a1-6)]Man(a1-6)[Man(a1-3)]Man
# Procedure, shortened: as §1
# [8] = target: Man(a1-3)[Man(a1-6)]Man(a1-6)[Man(a1-3)]Man(b1-4)GlcNAc(b1-4)GlcNAc
# Procedure, shortened: as §1
# [9] = target: Man(a1-3)[Man(a1-6)]Man(b1-4)GlcNAc(b1-4)GlcNAc
# Procedure, shortened: as §1
# [10] = target: Man(a1-3)[Man(a1-6)]Man(b1-4)GlcNAc(b1-4)[Fuc(a1-6)]GlcNAc
# Procedure, shortened: as §1
# Man(a1-6)Man = target: Man(a1-6)Man
# Procedure, shortened: as §1
# Man(b1-4)GlcNAc = target: Man(b1-4)GlcNAc
# Procedure, shortened: as §1
# MurNAc(b1-4)GlcNAc = target: MurNAc(b1-4)GlcNAc
# Procedure, shortened: as §1
# Neu5Ac(a2-3)Gal = target: Neu5Ac(a2-3)Gal
# Procedure, shortened: as §1
# [11] = target: Neu5Ac(a2-3)Gal(b1-3)GalNAc
# Procedure, shortened: as §1
# [12] = target: Neu5Ac(a2-3)Gal(b1-3)GalNAc(b1-3)Gal(a1-4)Gal(b1-4)Glc
# Procedure, shortened: as §1
# [13] = target: Neu5Ac(a2-3)Gal(b1-3)GalNAc(b1-4)[Neu5Ac(a2-3)]Gal(b1-4)Glc
# Procedure, shortened: as §1
# [14] = target: Neu5Ac(a2-3)Gal(b1-3)GalNAc(b1-4)[Neu5Ac(a2-8)Neu5Ac(a2-3)]Gal(b1-4)Glc
# Procedure, shortened: as §1
# [15] = target: Neu5Ac(a2-3)Gal(b1-3)GalNAc6S
# Procedure, shortened: as §1
# [16] = target: Neu5Ac(a2-3)Gal(b1-3)GlcNAc
# Procedure, shortened: as §1
# [17] = target: Neu5Ac(a2-3)Gal(b1-3)GlcNAc(b1-2)Man
# Procedure, shortened: as §1
# [18] = target: Neu5Ac(a2-3)Gal(b1-3)GlcNAc(b1-2)Man(a1-3)[GlcNAc(b1-4)][Neu5Ac(a2-3)Gal(b1-3)GlcNAc(b1-2)Man(a1-6)]Man(b1-4)GlcNAc(b1-4)GlcNAc
# Procedure, shortened: as §1
# [19] = target: Neu5Ac(a2-3)Gal(b1-3)GlcNAc(b1-2)Man(a1-3)[Neu5Ac(a2-3)Gal(b1-3)GlcNAc(b1-2)Man(a1-6)]Man(b1-4)GlcNAc(b1-4)GlcNAc
# Procedure, shortened: as §1
# [20] = target: Neu5Ac(a2-3)Gal(b1-3)GlcNAc(b1-2)[Neu5Ac(a2-3)Gal(b1-3)GlcNAc(b1-4)]Man(a1-6)[Neu5Ac(a2-3)Gal(b1-3)GlcNAc(b1-2)Man(a1-3)]Man(b1-4)GlcNAc(b1-4)GlcNAc
# Procedure, shortened: as §1
# [21] = target: Neu5Ac(a2-3)Gal(b1-3)GlcNAc(b1-3)Gal(b1-3)GlcNAc
# Procedure, shortened: as §1
# [22] = target: Neu5Ac(a2-3)Gal(b1-3)GlcNAc(b1-3)Gal(b1-4)GlcNAc
# Procedure, shortened: as §1
# [23] = target: Neu5Ac(a2-3)Gal(b1-3)GlcNAc(b1-3)GalNAc
# Procedure, shortened: as §1
# [24] = target: Neu5Ac(a2-3)Gal(b1-3)GlcNAc(b1-4)Gal(b1-4)Glc
# Procedure, shortened: as §1
# [25] = target: Neu5Ac(a2-3)Gal(b1-3)GlcNAc(b1-6)GalNAc
# Procedure, shortened: as §1
# [26] = target: Neu5Ac(a2-3)Gal(b1-3)GlcNAc6S
# Procedure, shortened: as §1
# [27] = target: Neu5Ac(a2-3)Gal(b1-3)[Fuc(a1-4)]GlcNAc
# Procedure, shortened: as §1
# [28] = target: Neu5Ac(a2-3)Gal(b1-3)[Fuc(a1-4)]GlcNAc(b1-3)Gal(b1-3)[Fuc(a1-4)]GlcNAc
# Procedure, shortened: as §1
# [29] = target: Neu5Ac(a2-3)Gal(b1-3)[Fuc(a1-4)]GlcNAc(b1-3)Gal(b1-4)[Fuc(a1-3)]GlcNAc
# Procedure, shortened: as §1
# [30] = target: Neu5Ac(a2-3)Gal(b1-3)[GlcNAc(b1-6)]GalNAc
# Procedure, shortened: as §1
# [31] = target: Neu5Ac(a2-3)Gal(b1-3)[Neu5Ac(a2-6)]GalNAc
# Procedure, shortened: as §1
# [32] = target: Neu5Ac(a2-3)Gal(b1-3)[Neu5Ac(a2-6)]GlcNAc(b1-3)[Fuc(a1-3)[Gal(b1-4)]GlcNAc(b1-6)]Gal(b1-4)Glc
# Procedure, shortened: as §1
# [33] = target: Neu5Ac(a2-3)Gal(b1-3)]Neu5Ac(a2-3)Gal(b1-4)]GlcNAc
# Procedure, shortened: as §1
# Neu5Ac(a2-3)Gal(b1-4)Glc = target: Neu5Ac(a2-3)Gal(b1-4)Glc
# Procedure, shortened: as §1
# [34] = target: Neu5Ac(a2-3)Gal(b1-4)GlcNAc
# Procedure, shortened: as §1
# [35] = target: Neu5Ac(a2-3)Gal(b1-4)GlcNAc(b1-2)Man
# Procedure, shortened: as §1
# [36] = target: Neu5Ac(a2-3)Gal(b1-4)GlcNAc(b1-2)Man(a1-3)[GlcNAc(b1-4)][Neu5Ac(a2-3)Gal(b1-4)GlcNAc(b1-2)Man(a1-6)]Man(b1-4)GlcNAc(b1-4)GlcNAc
# Procedure, shortened: as §1
# [37] = target: Neu5Ac(a2-3)Gal(b1-4)GlcNAc(b1-2)Man(a1-3)[Neu5Ac(a2-3)Gal(b1-4)GlcNAc(b1-2)Man(a1-6)]Man(b1-4)GlcNAc(b1-4)GlcNAc
# Procedure, shortened: as §1
# [38] = target: Neu5Ac(a2-3)Gal(b1-4)GlcNAc(b1-2)Man(a1-3)[Neu5Ac(a2-3)Gal(b1-4)GlcNAc(b1-2)Man(a1-6)]Man(b1-4)GlcNAc(b1-4)[Fuc(a1-6)]GlcNAc
# Procedure, shortened: as §1
# [39] = target: Neu5Ac(a2-3)Gal(b1-4)GlcNAc(b1-2)Man(a1-3)[Neu5Ac(a2-6)Gal(b1-4)GlcNAc(b1-2)Man(a1-6)]Man(b1-4)GlcNAc(b1-4)GlcNAc
# Procedure, shortened: as §1
binder,measurement,setting,value
B1,glycan array binding signal (z-score),[1],-0.367
same,glycan array binding signal (z-score),[2],-0.557
same,glycan array binding signal (z-score),[3],0.497
same,glycan array binding signal (z-score),[4],-0.6
same,glycan array binding signal (z-score),[5],2.25
same,glycan array binding signal (z-score),Man(a1-3)[Man(a1-6)]Man,1.11
same,glycan array binding signal (z-score),[6],0.686
same,glycan array binding signal (z-score),[7],-2.6
same,glycan array binding signal (z-score),[8],-0.185
same,glycan array binding signal (z-score),[9],0.192
same,glycan array binding signal (z-score),[10],-0.08
same,glycan array binding signal (z-score),Man(a1-6)Man,-1.18
same,glycan array binding signal (z-score),Man(b1-4)GlcNAc,0.276
same,glycan array binding signal (z-score),MurNAc(b1-4)GlcNAc,-0.675
same,glycan array binding signal (z-score),Neu5Ac(a2-3)Gal,-0.224
same,glycan array binding signal (z-score),[11],1.32
same,glycan array binding signal (z-score),[12],-0.139
same,glycan array binding signal (z-score),[13],0.084
same,glycan array binding signal (z-score),[14],0.059
same,glycan array binding signal (z-score),[15],1.77
same,glycan array binding signal (z-score),[16],0.05
same,glycan array binding signal (z-score),[17],-0.422
same,glycan array binding signal (z-score),[18],0.246
same,glycan array binding signal (z-score),[19],0.929
same,glycan array binding signal (z-score),[20],0.414
same,glycan array binding signal (z-score),[21],-0.609
same,glycan array binding signal (z-score),[22],-0.749
same,glycan array binding signal (z-score),[23],0.605
same,glycan array binding signal (z-score),[24],-0.177
same,glycan array binding signal (z-score),[25],-0.065
same,glycan array binding signal (z-score),[26],0.945
same,glycan array binding signal (z-score),[27],-1.21
same,glycan array binding signal (z-score),[28],2.06
same,glycan array binding signal (z-score),[29],-1.62
same,glycan array binding signal (z-score),[30],3.83
same,glycan array binding signal (z-score),[31],0.019
same,glycan array binding signal (z-score),[32],-0.632
same,glycan array binding signal (z-score),[33],0.062
same,glycan array binding signal (z-score),Neu5Ac(a2-3)Gal(b1-4)Glc,-1.66
same,glycan array binding signal (z-score),[34],0.412
same,glycan array binding signal (z-score),[35],0.361
same,glycan array binding signal (z-score),[36],0.227
same,glycan array binding signal (z-score),[37],-1.5
same,glycan array binding signal (z-score),[38],0.319
same,glycan array binding signal (z-score),[39],-0.658

# Nothing new here: entries from further up.
binder,measurement,setting,value
B1,glycan array binding signal (z-score),[11],1.32
same,glycan array binding signal (z-score),[12],-0.139
same,glycan array binding signal (z-score),[13],0.084
same,glycan array binding signal (z-score),[14],0.059
